For the assay, the system named is L1210 leukemia ip in BDF1 mice, survival T/C. Nature of the assay: NCI In Vivo Anticancer Drug Screen. Data for tumor model L1210 Leukemia (intraperitoneal) in B6D2F1 (BDF1) mice. The conditions noted are these: higher T/C = longer survival.
Setting [1] is: T/C endpoint: mean survival time, dose: 200.0 mg/kg/injection, schedule: Q04DX003 (ip), vehicle: saline with Tween-80.
Where [2] appears, read: T/C endpoint: mean survival time, dose: 400.0 mg/kg/injection, schedule: Q04DX003 (ip), vehicle: saline with Tween-80.
The mark [3] stands for this setting: T/C endpoint: mean survival time, dose: 200.0 mg/kg/injection, schedule: Q04DX003 (ip), vehicle: Klucel (hydroxypropylcellulose) (HPC).
[4] abbreviates: T/C endpoint: mean survival time, dose: 400.0 mg/kg/injection, schedule: Q04DX003 (ip), vehicle: Klucel (hydroxypropylcellulose) (HPC).
The mark [5] stands for this setting: T/C endpoint: mean survival time, dose: 100.0 mg/kg/injection, schedule: Q04DX003 (ip), vehicle: saline with Tween-80.
[6] abbreviates: T/C endpoint: mean survival time, dose: 100.0 mg/kg/injection, schedule: Q01DX009 (ip), vehicle: Klucel (hydroxypropylcellulose) (HPC).
Where [7] appears, read: T/C endpoint: mean survival time, dose: 200.0 mg/kg/injection, schedule: Q01DX009 (ip), vehicle: Klucel (hydroxypropylcellulose) (HPC).
[8] abbreviates: T/C endpoint: mean survival time, dose: 400.0 mg/kg/injection, schedule: Q01DX009 (ip), vehicle: Klucel (hydroxypropylcellulose) (HPC).

The list is a part of this screen's results and no random one: it gathers tests that were run many times, whatever their T/C, doses with no T/C, and many T/C values between a quarter and a half above the control. Other doses and runs of a compound stand elsewhere. T/C is the treated group as % of the vehicle group. Some entries give survivors of the animals treated and no T/C: the source holds a T/C of zero for them, seemingly a mark for toxic or unscored doses. Some doses without a T/C left all or most animals alive at the check, yet need not have been tolerated: the source hardly ever lists a survival T/C far under the control, and the zero likely stands for such cases as well. Counts of survivors are from the toxicity check (mostly the fifth day) where no day follows; animals may have died later. Schedules are NCI's codes, read here as Q, the interval in days (D) or hours (H), X, the number of doses. Some schedule codes hold Z or #, which are not explained here. Some entries hold several experiments; the values are given in rising order. Where survival is the endpoint, the PubChem record calls one and a half times the control and up active, and a quarter to a half above the control has no call in these data; cut-offs in other NCI protocols can differ. Some T/C values carry the count of animals alive at the toxicity check (mostly the fifth day); where none is given, no animal had died by that day.

`C[CH2][Sn]([F])([CH2]C)[CH2]C`: the survivor count reads like this: (T/C endpoint: mean survival time, dose: 12.5 mg/kg/injection, schedule: Q04DX002 (ip), vehicle: gum acacia) 1 of 3; (T/C endpoint: mean survival time, dose: 25.0 mg/kg/injection, schedule: Q04DX002 (ip), vehicle: gum acacia) 0 of 3; (T/C endpoint: mean survival time, dose: 50.0 mg/kg/injection, schedule: Q04DX002 (ip), vehicle: gum acacia) 0 of 3; (T/C endpoint: mean survival time, dose: 100.0 mg/kg/injection, schedule: Q04DX002 (ip), vehicle: gum acacia) 0 of 3; (T/C endpoint: mean survival time, dose: 200.0 mg/kg/injection, schedule: Q04DX002 (ip), vehicle: gum acacia) 0 of 3; (T/C endpoint: mean survival time, dose: 400.0 mg/kg/injection, schedule: Q04DX002 (ip), vehicle: gum acacia) 0 of 3.

In the case of `O=NN(CCCl)C(=O)Nc1ccc(CC(=O)O)cc1`, the survivor count (T/C endpoint: mean survival time, dose: 40.0 mg/kg/injection, schedule: Q01DX001 (ip), vehicle: carboxymethylcellulose (CMC)) is reported as 5 of 6; the survivor count (T/C endpoint: mean survival time, dose: 60.0 mg/kg/injection, schedule: Q01DX001 (ip), vehicle: carboxymethylcellulose (CMC)) was 4 of 6; the survivor count (T/C endpoint: mean survival time, dose: 93.0 mg/kg/injection, schedule: Q01DX001 (ip), vehicle: carboxymethylcellulose (CMC)) was 0 of 6; the survivor count (T/C endpoint: mean survival time, dose: 187.0 mg/kg/injection, schedule: Q01DX001 (ip), vehicle: carboxymethylcellulose (CMC)) was 0 of 6; the survivor count (T/C endpoint: mean survival time, dose: 375.0 mg/kg/injection, schedule: Q01DX001 (ip), vehicle: carboxymethylcellulose (CMC)) is 0 of 6.

For `Cc1cccc([N+](=O)[O-])n1`, the survivor count is recorded as 5 of 6 (T/C endpoint: mean survival time, dose: 100.0 mg/kg/injection, schedule: Q01DX009 (ip), vehicle: saline with Tween-80); 4 of 6 under setting [1]; 4 of 6 under setting [2].

`O=S(=O)(O)c1ccccc1O`: the survivor count (T/C endpoint: mean survival time, dose: 100.0 mg/kg/injection, schedule: Q01DX009 (ip), vehicle: saline) is 2 of 6.

Consider `CC(C)=C1C2CCC1NN2`, for which the survivor count (T/C endpoint: mean survival time, dose: 100.0 mg/kg/injection, schedule: Q01DX001 (ip), vehicle: Klucel (hydroxypropylcellulose) (HPC)) is given as 3 of 6; the survivor count (T/C endpoint: mean survival time, dose: 200.0 mg/kg/injection, schedule: Q01DX001 (ip), vehicle: Klucel (hydroxypropylcellulose) (HPC)) is on record as 0 of 6; the survivor count (T/C endpoint: mean survival time, dose: 400.0 mg/kg/injection, schedule: Q01DX001 (ip), vehicle: Klucel (hydroxypropylcellulose) (HPC)) is on record as 0 of 6.

For `CCCCCCCCCCCCCCN(C)C`, the survivor count by setting is: under setting [3], 3 of 6; under setting [4], 0 of 6.

Regarding `C[n+]1c2ccccc2c(Nc2ccc(NS(=O)(=O)CCCCN=C(N)N)cc2)c2ccc(N)cc21`, the T/C (T/C endpoint: mean survival time, dose: 0.25 mg/kg/injection, schedule: Q03HX008 (ip), vehicle: water) is 126 % of control; the T/C (T/C endpoint: mean survival time, dose: 0.75 mg/kg/injection, schedule: Q01DX009 (ip), vehicle: water, evaluated on day 30) was 144 % of control; the T/C (T/C endpoint: mean survival time, dose: 0.75 mg/kg/injection, schedule: Q01DX009 (ip), vehicle: water, evaluated on day 60) is 134 % of control [9 of 10 alive]; the T/C (T/C endpoint: mean survival time, dose: 1.0 mg/kg/injection, schedule: Q03HX008 (ip), vehicle: water) was 134 % of control; the T/C (T/C endpoint: mean survival time, dose: 1.5 mg/kg/injection, schedule: Q01DX009 (ip), vehicle: water) is 141 % of control; the T/C (T/C endpoint: mean survival time, dose: 3.12 mg/kg/injection, schedule: Q01DX001 (ip), vehicle: water) is 128 % of control. Moreover, the T/C was 128 % of control (T/C endpoint: mean survival time, dose: 6.25 mg/kg/injection, schedule: Q01DX001 (ip), vehicle: water) and 140 % of control (T/C endpoint: median survival time, dose: 3.0 mg/kg/injection, schedule: Q01DX009 (sc), vehicle: water). Further, the survivor count is 4 of 10 (T/C endpoint: mean survival time, dose: 50.0 mg/kg/injection, schedule: Q01DX001 (ip), vehicle: water); 0 of 10 and 0 of 6 (T/C endpoint: mean survival time, dose: 50.0 mg/kg/injection, schedule: Q04DX003 (ip), vehicle: water); 2 of 6 under setting [5]; 0 of 6 under setting [1]; 0 of 6 under setting [2]; 9 of 10 (T/C endpoint: median survival time, dose: 24.0 mg/kg/injection, schedule: Q01DX009 (sc), vehicle: water).

For the compound `O=C(O)C(O)C(O)C(O)C(O)C(O)CO.[Fe]` (centres undefined), the survivor count reads like this: (T/C endpoint: mean survival time, dose: 150.0 mg/kg/injection, schedule: Q01DX001 (ip), vehicle: saline) 1 of 6; (T/C endpoint: mean survival time, dose: 300.0 mg/kg/injection, schedule: Q01DX001 (ip), vehicle: saline) 0 of 6.

`O=[N+]([O-])c1ccc2scc3c4ccccc4nc-3c2c1`: the survivor count is, setting by setting: (T/C endpoint: mean survival time, dose: 35.0 mg/kg/injection, schedule: Q01DX009 (ip), vehicle: Klucel (hydroxypropylcellulose) (HPC)) 0 of 6; (T/C endpoint: mean survival time, dose: 50.0 mg/kg/injection, schedule: Q04DX003 (ip), vehicle: saline) 6 of 6; (T/C endpoint: mean survival time, dose: 55.0 mg/kg/injection, schedule: Q01DX009 (ip), vehicle: Klucel (hydroxypropylcellulose) (HPC)) 0 of 6; (T/C endpoint: mean survival time, dose: 80.0 mg/kg/injection, schedule: Q01DX009 (ip), vehicle: Klucel (hydroxypropylcellulose) (HPC)) 0 of 6; under setting [6], 0 of 6; under setting [5], 5 of 6. For the same compound, the survivor count is given as 0 of 6 under setting [7], 1 of 6 under setting [1], 0 of 6 under setting [8] and 0 of 6 under setting [2].

As for `CCOC(=O)c1ccc(NC(=O)Nc2ccc(Cl)cc2[N+](=O)[O-])cc1`, under setting [7], the survivor count was 6 of 6.

Take `c1ccc(C(NC2=NCCCCCC2)c2ccco2)cc1` (centres undefined): the survivor count runs as follows: (T/C endpoint: mean survival time, dose: 50.0 mg/kg/injection, schedule: Q01DX009 (ip), vehicle: Klucel (hydroxypropylcellulose) (HPC)) 1 of 6; under setting [6], 0 of 6; under setting [7], 0 of 6; under setting [8], 0 of 6.

Consider `N/N=C(\N)c1ccc(NC(=O)c2ccc(C(=O)Nc3ccc(/C(N)=N/N)cc3)cc2)cc1`, for which the survivor count is, setting by setting: (T/C endpoint: mean survival time, dose: 120.0 mg/kg/injection, schedule: Q01DX Z (ip), vehicle: saline) 5 of 6; (T/C endpoint: mean survival time, dose: 240.0 mg/kg/injection, schedule: Q01DX Z (ip), vehicle: saline) 3 of 6.

In the case of `O=C(NCCBr)NC1CC1c1ccccc1` (centres undefined), the survivor count is, setting by setting: under setting [3], 1 of 6; under setting [4], 1 of 6.

Consider `O/N=c1/cc(-c2cccs2)ss1`, for which the survivor count (T/C endpoint: mean survival time, dose: 400.0 mg/kg/injection, schedule: Q01DX009 (ip), vehicle: saline) is listed as 3 of 6.

As to `O=C(O)C1C(C(=O)O)C2(Cl)C(Cl)=C(Cl)C1(Cl)C2(Cl)Cl.[Mn]` (centres undefined), the T/C (T/C endpoint: mean survival time, dose: 100.0 mg/kg/injection, schedule: Q01DX009 (ip), vehicle: saline sonified) is 126 % of control. For the same compound, the survivor count under setting [4] is 0 of 6.

As to `CC(=O)CC(=O)Nc1ccc2ccccc2c1`, the survivor count under setting [7] is listed as 5 of 6 and the survivor count under setting [8] was 3 of 6.

For `CC(=O)NC1=C(S(=O)(=O)O)c2ccccc2C1`, the survivor count (T/C endpoint: mean survival time, dose: 200.0 mg/kg/injection, schedule: Q04DX002 (ip), vehicle: saline) is recorded as 3 of 3.

With `O=C(O)c1cc(F)ccc1F`, under “T/C endpoint: mean survival time, dose: 400.0 mg/kg/injection, schedule: Q04DX002 (ip), vehicle: Klucel (hydroxypropylcellulose) (HPC)”, the survivor count was 0 of 3.

Regarding `C/C=C1\CN2CCc3c([nH]c4ccccc34)C2CC1CC(=O)N(C)C` (centres undefined), the survivor count under setting [2] is reported as 6 of 6.

As for `S=C([S-])[P+](C1CCCCC1)(C1CCCCC1)C1CCCCC1`, the survivor count under setting [2] was 6 of 6.

(Values after PubChem BioAssay AID248 (DTP/NCI, 2004).)
